Experiment [1] concerns the target T1, Repressor/activator protein 1 (RAP1; TRF2-interacting protein), endogenous (human (endogenous in HeLa and SH-SY5Y)) (UniProt Q9NYB0).
T1 sequence: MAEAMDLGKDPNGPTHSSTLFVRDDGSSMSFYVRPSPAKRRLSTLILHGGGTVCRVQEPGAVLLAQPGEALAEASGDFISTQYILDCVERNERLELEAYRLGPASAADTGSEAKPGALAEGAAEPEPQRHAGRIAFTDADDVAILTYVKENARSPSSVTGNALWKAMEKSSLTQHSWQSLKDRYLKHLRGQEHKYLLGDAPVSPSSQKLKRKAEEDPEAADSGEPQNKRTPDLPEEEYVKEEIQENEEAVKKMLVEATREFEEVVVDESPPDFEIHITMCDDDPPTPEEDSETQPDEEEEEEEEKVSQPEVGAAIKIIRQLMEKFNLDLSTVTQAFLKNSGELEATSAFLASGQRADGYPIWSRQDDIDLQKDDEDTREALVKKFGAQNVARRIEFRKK
Kind of experiment: co-IP; SH-SY5Y whole cell lysates, baseline conditions; CHAPS lysis buffer; anti-LAP1, anti-TRF2 or anti-RAP1 on Dynabeads Protein G, overnight 4 °C; immunoblot.

Chains of the proteins cited; added tags and fusions are not shown. Lines headed by an entry give the natural chain unless they say otherwise; changes in a name come on top. A line that says so, or that is headed by a name, gives the form on record, which may keep a tag or linker.
UniProt Q5JTV8: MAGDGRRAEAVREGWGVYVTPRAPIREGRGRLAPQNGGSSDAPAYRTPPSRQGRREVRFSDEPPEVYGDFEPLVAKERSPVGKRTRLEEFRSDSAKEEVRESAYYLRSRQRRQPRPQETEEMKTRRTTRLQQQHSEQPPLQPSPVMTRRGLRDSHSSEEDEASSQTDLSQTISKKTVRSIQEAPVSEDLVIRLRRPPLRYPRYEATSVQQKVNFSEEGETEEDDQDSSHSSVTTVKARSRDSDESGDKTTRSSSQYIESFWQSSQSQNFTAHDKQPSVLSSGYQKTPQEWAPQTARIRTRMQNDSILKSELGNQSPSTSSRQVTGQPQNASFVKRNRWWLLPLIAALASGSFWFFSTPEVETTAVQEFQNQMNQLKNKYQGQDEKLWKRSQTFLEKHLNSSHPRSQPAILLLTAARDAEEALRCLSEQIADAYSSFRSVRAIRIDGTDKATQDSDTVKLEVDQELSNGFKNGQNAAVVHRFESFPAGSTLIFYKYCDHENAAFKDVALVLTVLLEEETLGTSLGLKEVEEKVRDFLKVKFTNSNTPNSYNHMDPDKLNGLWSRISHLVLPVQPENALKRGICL
Human full-length LAP1B (lamina-associated polypeptide 1B, variant 1), in vitro translated (Q5JTV8, form named): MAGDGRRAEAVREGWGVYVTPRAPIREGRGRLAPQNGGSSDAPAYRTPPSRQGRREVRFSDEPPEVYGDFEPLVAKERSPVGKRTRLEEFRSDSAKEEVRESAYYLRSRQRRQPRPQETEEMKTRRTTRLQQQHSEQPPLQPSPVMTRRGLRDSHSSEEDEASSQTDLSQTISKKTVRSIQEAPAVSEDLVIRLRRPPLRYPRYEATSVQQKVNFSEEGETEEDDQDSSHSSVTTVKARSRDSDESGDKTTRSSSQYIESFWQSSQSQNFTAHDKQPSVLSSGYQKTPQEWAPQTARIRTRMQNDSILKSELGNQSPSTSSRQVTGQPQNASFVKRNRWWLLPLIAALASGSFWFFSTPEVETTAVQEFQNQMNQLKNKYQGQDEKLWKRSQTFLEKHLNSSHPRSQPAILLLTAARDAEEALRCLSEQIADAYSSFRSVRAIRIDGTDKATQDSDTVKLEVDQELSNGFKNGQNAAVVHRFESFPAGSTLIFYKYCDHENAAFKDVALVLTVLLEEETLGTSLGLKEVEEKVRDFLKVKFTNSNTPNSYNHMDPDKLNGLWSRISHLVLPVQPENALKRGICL
UniProt Q15554: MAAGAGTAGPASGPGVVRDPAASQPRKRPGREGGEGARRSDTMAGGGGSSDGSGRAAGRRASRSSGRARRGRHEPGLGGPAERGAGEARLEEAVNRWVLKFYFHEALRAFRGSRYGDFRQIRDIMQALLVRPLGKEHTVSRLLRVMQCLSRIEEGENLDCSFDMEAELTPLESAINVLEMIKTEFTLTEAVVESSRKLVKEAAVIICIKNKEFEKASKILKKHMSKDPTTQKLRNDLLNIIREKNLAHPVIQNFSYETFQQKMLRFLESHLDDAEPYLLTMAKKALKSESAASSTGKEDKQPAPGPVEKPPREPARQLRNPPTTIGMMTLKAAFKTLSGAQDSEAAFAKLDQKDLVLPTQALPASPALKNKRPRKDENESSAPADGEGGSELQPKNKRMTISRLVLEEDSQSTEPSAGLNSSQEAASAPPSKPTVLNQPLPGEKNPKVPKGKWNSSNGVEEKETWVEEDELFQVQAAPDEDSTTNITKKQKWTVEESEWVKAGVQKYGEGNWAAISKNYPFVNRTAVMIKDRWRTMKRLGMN

For experiment [2], the target named is Human LAP1B ∆A185 (shorter LAP1B variant lacking alanine 185, variant 2), in vitro translated (human) (UniProt Q5JTV8). In words: far-Western, overlay or dot blot; LAP1B–IVT and LAP1B ∆A185–IVT resolved by 10% SDS–PAGE and transferred to nitrocellulose; blocked in 3% BSA/TBS-T; overlaid with HeLa nuclear extract (in PBS) for 1 h; bound TRF2 detected with anti-TRF2 antibody.

Experiment [3] deals with Human full-length LAP1B (lamina-associated polypeptide 1B, variant 1), in vitro translated (human) (UniProt Q5JTV8). Described as above.
The target of experiment [4] is Telomeric repeat-binding factor 2 (TRF2), endogenous (human (endogenous in HeLa and SH-SY5Y)) (UniProt Q15554). In words: co-IP; SH-SY5Y whole cell lysates, baseline conditions; CHAPS lysis buffer; anti-LAP1, anti-TRF2 or anti-RAP1 on Dynabeads Protein G, overnight 4 °C; immunoblot. (In general: A western blot detects proteins with antibodies after separation by electrophoresis.)

No constants are given. Whether binding was seen depends on the method and setting. For some of these results: Binding seen in cells or lysates may run through a third protein. Some binding calls cover weakened binding; strength is not graded here.

Take “Telomeric repeat-binding factor 2 (TRF2), endogenous (from UniProt Q15554-3 1-542)”: the binding result in experiment [1], in experiment [2] and in experiment [3] was “binds” in each case.

B1: Repressor/activator protein 1 (RAP1; TRF2-interacting protein), endogenous (protein, UniProt Q9NYB0 1-399)
chain: T1 sequence
Regarding B1, the binding entry in experiment [4] is given as “binds”.

The values are drawn from PMC7465990.
